The chains are these.
B1: tRNA (parent)
chain: GUUCCGUUGGCGUAAUGGUAACGCGUCUCCCUCCUAAGGAGAAGACUGCGGGUUCGAGUCCCGUACGGAACG

Among the data in the RNAGym collection of RNA variant scans (doi:10.1126/science.aae0568) are yeast fitness values, retold here.

Variants at the background level are over-represented here.

In the series the parent is B1. Kind of series: yeast fitness relative to wild type (ratio to wild type); higher = fitter; tRNA-Arg(CCU), competitive growth, 37 C, YPD. In outline: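 Variants of the tRNA-Arg(CCU) gene, chemically synthesised with a 3% per-site mutation rate at 69 sites, were placed at the native genomic locus in Saccharomyces cerevisiae. The pooled strains were competed in YPD at 37°C for 24 hours in six parallel replicates. Gene amplicons from the start population and from each end population were read by 100-nucleotide paired-end sequencing. Darwinian fitness relative to wild type came from changes in genotype frequencies; genotypes needed ≥ 100 starting reads, and estimates < 0.5 were set to 0.5.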
With GUUCGGUUGGCGUAAUGGUAACGCGUAUCCCUCCUAAGGAGAAGACUGCGGGUUCGACUCCCGUACGGAACG, the yeast fitness was no more than 0.5.

Regarding GUUCCGUUGGCGUGAUGGUAACGCGUCUCCCUCUUAAGGAGAAGACUGCGGGUUCGAGUCCCGUAGGGAACG, the yeast fitness was no more than 0.5.

In the case of GUUCCGUUGGCGUAAUGGGAACGCGUCUCCCUCCUAAGGGGAAGACUGCGGGUUGGAGUCCCGUCCGGAACG, the yeast fitness was no more than 0.5.

As for GUUCGGUUGGCGUAGUGGUAACGCGUCUUCCUCCUAAGGUGGAGACAGCGGGUUCGAGUCCCGUACGGAACG, the yeast fitness was no more than 0.5.

Take GUUCCGUUGGCGUAAUGGUAACGCGUCUCCUUCCUAAGGGGAAGACUGCGGGCUCGAGUCCCGUACGGAACG: the yeast fitness was no more than 0.5.

With GUUCCGUUGGCGUAAUGGUAUCACGUCUCCCUCCUAAGGAGCAGACUGCGCGUUCGAGUCCCGUACGGAACG, the yeast fitness was no more than 0.5.

As to GUUCCGUUAGCGUAAUGGUAAGGCGUCUCCCUCCUAAGGAGAAGGCUGCGGGUUCGAGUCCCGUACGGAACG, the yeast fitness turned out to be 0.588.

Take GUUCCGUUGGCGUAGUGGUAACGCGUCUGCCUGCUAAGGAGAAGACUGCGGGUUCGAGUCCCGUACGGAACG: the yeast fitness was no more than 0.5.

Take GUUCCGUUGACGUAAUGGUGACACGUCUCCCUCCUAGGGCGAAGACUGCGGGUUCGAGUCCCGUACGGAACG: the yeast fitness is no more than 0.5.

Take GUUCCGUUGGCGUAAUGGUAAUGCGUCUCCCUCCUAAGGAGAAGACUGCGGGUUUGAGUCCCGUACGGAACG: the yeast fitness was found to be 0.686.

On to GUUCCGUUAGCGUAAAGGUAACCAGUCGCCCUCUUAUGGAGAAGACUGCGGGUUCGAGUCCCGUACGAAACG, for which the yeast fitness was no more than 0.5.

In the case of GUUCCGUUGGCGUAAUGGUAACGCGUCUCCCUCCUAAGGAGAAGACAGCGGCUUCGAGUCCCGUACGGAACG, the yeast fitness amounted to 0.581.

Consider GUUCCGUUCGCGUAAUGGUAACGCGUCUCCCUCCUAAGGAGUAGACUGCGGGUUGGAGUCCCGUACGGAACG, for which the yeast fitness was no more than 0.5.

GUUCCGUUGGUGUAUUGGUAACGCGUCUCCCUCCUAAGGAGAAGACUGCGGGUUCGAGUUCCGUACGGAACG: the yeast fitness was no more than 0.5.

Turning to GUUCCGUUGGCGUAAUGGUUACGCGUCUCCCUCCUAAGGAGAAGACUGCGGGUACGAGUCCCGUACGGAGCG, the yeast fitness is no more than 0.5.

For the variant GUUCCGUUGGCGUGAUGGUAAUGCGUCUCCCUCCUAAGGAGAAGUCUGCGGGUUCGAGUCCCGUACGGAACG, the yeast fitness came out at 0.626.

On to GUUCCGGUGGCGUACUGGUAACGCGUCUCCCUCCUAAGGGGAAGACUGCGGGUUCGAGUCCCGUACGGAACG, for which the yeast fitness is no more than 0.5.

On to GUUCGGUUGCCGUAAUGGUAACGCGUCUCCCUCCUAAGGAGAAGAGUGCGGGUUCGAGUCCCGUAGGGCACG, for which the yeast fitness is no more than 0.5.

For GUUCCGUUGGCGUAAUGGUAACGCGUCUCCCUCCUAAGGAGAAGACUGCGGGUUCGUGUCCCGUACGGAACG, the yeast fitness came to 0.731.

Turning to GUUCCGUUGGCGAUAUGGUAACGGGUCGCCUUCCUAAGGAGAAGACUGCGGGUUCGAGUCCCGUACGGAACG, the yeast fitness is no more than 0.5.

As for GUUCCGUUGGCGUAGUGGUAACGGGUCUCCCUCCUAGGGAGAAGACUGAGGGUUCGAGUCCCGUACGGAACG, the yeast fitness was no more than 0.5.

For GUUCCGUUGGCCUAAUGGUAACGCGUCUCCCUCCUAAGGAGUAGACUGCGGGUUCGAGUCCCGUACGGAACG, the yeast fitness was 0.698.

For GUUCCGUGGGCGUAAUGGUAAGGGGUCUCGCUCCUGAGGAGAAGACUGCGGGUUCGAGUCCCGUGCGGAACG, the yeast fitness was no more than 0.5.

Turning to GUUCCGUCGGCGUAAUGGUACCGGGUCUCCCUCCUAAGGAGAAGACUGCGGGUUCGAGUCCCGUCCCGAACG, the yeast fitness is no more than 0.5.

With GUUCCGGUGGCGUAAUGGUAACGCGUCUCUCUCCUAAAGAGAAGACUGCGGGUUCCAGUCCCGUACGGAACG, the yeast fitness was no more than 0.5.

For the variant GUUCGGUUGGCGUAAUGGUAACGCGUCUCCCUCCUAAGGAGAUGACUGCGGGUUCGAGUCCCAUACGGAACG, the yeast fitness was no more than 0.5.

In the case of GUUCCGUUGACGUAAUGGUAACGCGUCUCCCUCCUGAGGAGAAGACUGCGGGCUCGAGUCCCGUACGGAACG, the yeast fitness was no more than 0.5.

With GUUCCGUUGGCGUAAUGGGAACGCGUCUCCCUCCUAAGGAGAAGACUGCGGGUUCGAGUCCCGUACGGUACG, the yeast fitness was found to be 0.892.

As for GAUCAGUUGGCGUAAUGGUAACGCGUCUCCCUCCUAAGGAGAAGACUGCGGGUUCGCGUCCCGUACGGAACG, the yeast fitness was no more than 0.5.

On to GUUCCGUUGGCGUAAUGGUAACGCGUCUCCCUCCUAAGGAGAAGACUGCGGGUUCGAGUCUCGUACGGGCCG, for which the yeast fitness came to 0.923.

In the case of GUUCCGAUGGCGUAAUAGUAACGCGUCUCCCUCCUAAGGAGAAGCCAGCAGGUUCGAGUCCCGUACGGAACG, the yeast fitness was no more than 0.5.

In the case of GUUCCGUUGGCGUAAUGGUAUCGCGUGUCCCUCCUAAGGAGAAGCCUGCGGGUUCGAGUCCCGUACGGUACG, the yeast fitness is no more than 0.5.

With GUUCCGUUCGCGUAAUGGUAACGCGUCUCCCUCCUAUGGUGAAGACUGCGGGUUCGAGUCCCGUACGGAACG, the yeast fitness is no more than 0.5.

As for GUUCCGUUGGCGUAAUGGUAACGCGUCUCCCUCCUAAGGGGAGCACUGCGGGUUCGAGUCUCGUACGGAACG, the yeast fitness is no more than 0.5.

For GUUCCGUUGGCGUAAUGGUAACGCCUCUCCCUCCUAAGGAGAAGACUGCGGGUUCGAGUCCGGUACGGAACG, the yeast fitness amounted to 0.877.

Regarding GUUCCGUUGGCGUAAUGGUAACGAGUCUCCCUCCUAAGGAGAAGACUGCGGCUUCGAGUCCCAUACGGAACG, the yeast fitness was no more than 0.5.

With GUUCCGUUGGCAUAGUGGUAACGCGUCUCCCUCCUAAGGAGGAGACUGCGGGUUCGAGUCCCGUACGGAACG, the yeast fitness is no more than 0.5.
